No constants are given. Whether binding was seen depends on the method and setting. In cells and extracts the contact can be indirect. Here binding means that the protein was enriched with, or labelled near, the bait; the list need not be complete. For some assays here: No binding means not detected with the bait.

Assay [1] addresses amyloid-β (Aβ) peptide (human (endogenous in brain tissue)) (UniProt P05067). Put plainly: condition: only tris-soluble fraction of sAD brains; affinity purification with mass spectrometry; as a1, tris-soluble fraction of sAD brains only.
Assay [2] has the same target. In words: affinity purification with mass spectrometry; co-IP of Aβ from the tris-soluble fraction (500 ug protein) of human frontal cortex (controls, sAD, rpAD; n = 4) on Dynabeads coated with antibodies 4G8 and 6E10, overnight at 4 °C, washes with 0.3% CHAPS; LC-ESI MS/MS of the tryptic digest.

B1: Peroxiredoxin-2 (protein, UniProt P32119 1-198)
chain: MASGNARIGKPAPDFKATAVVDGAFKEVKLSDYKGKYVVLFFYPLDFTFVCPTEIIAFSNRAEDFRKLGCEVLGVSVDSQFTHLAWINTPRKEGGLGPLNIPLLADVTRRLSEDYGVLKTDEGIAYRGLFIIDGKGVLRQITVNDLPVGRSVDEALRLVQAFQYTDEHGEVCPAGWKPGSDTIKPNVDDSKEYFSKHN
On to B1, for which the binding result in assay [1] is on record as “no binding”; in assay [2] it was “binds”.

B2: Quinone oxidoreductase (protein, UniProt Q08257 1-329)
chain: MATGQKLMRAVRVFEFGGPEVLKLRSDIAVPIPKDHQVLIKVHACGVNPVETYIRSGTYSRKPLLPYTPGSDVAGVIEAVGDNASAFKKGDRVFTSSTISGGYAEYALAADHTVYKLPEKLDFKQGAAIGIPYFTAYRALIHSACVKAGESVLVHGASGGVGLAACQIARAYGLKILGTAGTEEGQKIVLQNGAHEVFNHREVNYIDKIKKYVGEKGIDIIIEMLANVNLSKDLSLLSHGGRVIVVGSRGTIEINPRDTMAKESSIIGVTLFSSTKEEFQQYAAALQAGMEIGWLKPVIGSQYPLEKVAEAHENIIHGSGATGKMILLL
For the molecule B2, the binding result in assay [2] is on record as “binds”.

B3: Cysteine-rich protein 2 (protein, UniProt P52943 1-208)
chain: MASKCPKCDKTVYFAEKVSSLGKDWHKFCLKCERCSKTLTPGGHAEHDGKPFCHKPCYATLFGPKGVNIGGAGSYIYEKPLAEGPQVTGPIEVPAARAEERKASGPPKGPSRASSVTTFTGEPNTCPRCSKKVYFAEKVTSLGKDWHRPCLRCERCGKTLTPGGHAEHDGQPYCHKPCYGILFGPKGVNTGAVGSYIYDRDPEGKVQP
As to B3, the binding entry in assay [2] was “binds”.

B4: Immunoglobulin superfamily member 8 (protein, UniProt Q969P0 28-613)
chain: REVLVPEGPLYRVAGTAVSISCNVTGYEGPAQQNFEWFLYRPEAPDTALGIVSTKDTQFSYAVFKSRVVAGEVQVQRLQGDAVVLKIARLQAQDAGIYECHTPSTDTRYLGSYSGKVELRVLPDVLQVSAAPPGPRGRQAPTSPPRMTVHEGQELALGCLARTSTQKHTHLAVSFGRSVPEAPVGRSTLQEVVGIRSDLAVEAGAPYAERLAAGELRLGKEGTDRYRMVVGGAQAGDAGTYHCTAAEWIQDPDGSWAQIAEKRAVLAHVDVQTLSSQLAVTVGPGERRIGPGEPLELLCNVSGALPPAGRHAAYSVGWEMAPAGAPGPGRLVAQLDTEGVGSLGPGYEGRHIAMEKVASRTYRLRLEAARPGDAGTYRCLAKAYVRGSGTRLREAASARSRPLPVHVREEGVVLEAVAWLAGGTVYRGETASLLCNISVRGGPPGLRLAASWWVERPEDGELSSVPAQLVGGVGQDGVAELGVRPGGGPVSVELVGPRSHRLRLHSLGPEDEGVYHCAPSAWVQHADYSWYQAGSARSGPVTVYPYMHALDTLFVPLLVGTGVALVTGATVLGTITCCFMKRLRKR
As to B4, the binding entry in assay [2] is reported as “binds”.

B5: Fructose-bisphosphate aldolase C (protein, UniProt P09972 1-364)
chain: MPHSYPALSAEQKKELSDIALRIVAPGKGILAADESVGSMAKRLSQIGVENTEENRRLYRQVLFSADDRVKKCIGGVIFFHETLYQKDDNGVPFVRTIQDKGIVVGIKVDKGVVPLAGTDGETTTQGLDGLSERCAQYKKDGADFAKWRCVLKISERTPSALAILENANVLARYASICQQNGIVPIVEPEILPDGDHDLKRCQYVTEKVLAAVYKALSDHHVYLEGTLLKPNMVTPGHACPIKYTPEEIAMATVTALRRTVPPAVPGVTFLSGGQSEEEASFNLNAINRCPLPRPWALTFSYGRALQASALNAWRGQRDNAGAATEEFIKRAEVNGLAAQGKYEGSGEDGGAAAQSLYIANHAY
Consider B5, for which, in assay [2], the binding entry is given as “binds”.

B6: Adenylate kinase isoenzyme (protein, UniProt P00568 1-194)
chain: MEEKLKKTKIIFVVGGPGSGKGTQCEKIVQKYGYTHLSTGDLLRSEVSSGSARGKKLSEIMEKGQLVPLETVLDMLRDAMVAKVNTSKGFLIDGYPREVQQGEEFERRIGQPTLLLYVDAGPETMTQRLLKRGETSGRVDDNEETIKKRLETYYKATEPVIAFYEKRGIVRKVNAEGSVDSVFSQVCTHLDALK
For the molecule B6, the binding result in assay [2] is on record as “binds”.

B7: Dihydropteridine reductase (protein, UniProt P09417 1-244)
chain: MAAAAAAGEARRVLVYGGRGALGSRCVQAFRARNWWVASVDVVENEEASASIIVKMTDSFTEQADQVTAEVGKLLGEEKVDAILCVAGGWAGGNAKSKSLFKNCDLMWKQSIWTSTISSHLATKHLKEGGLLTLAGAKAALDGTPGMIGYGMAKGAVHQLCQSLAGKNSGMPPGAAAIAVLPVTLDTPMNRKSMPEADFSSWTPLEFLVETFHDWITGKNRPSSGSLIQVVTTEGRTELTPAYF
For the molecule B7, the binding entry in assay [2] is “binds”.

The values are drawn from publication PMC8786784.
